These results are taken from PMC10115178.

By UniProt entry, the sequences of proteins in these tests, tags left out.
UniProt Q09472, whole entry: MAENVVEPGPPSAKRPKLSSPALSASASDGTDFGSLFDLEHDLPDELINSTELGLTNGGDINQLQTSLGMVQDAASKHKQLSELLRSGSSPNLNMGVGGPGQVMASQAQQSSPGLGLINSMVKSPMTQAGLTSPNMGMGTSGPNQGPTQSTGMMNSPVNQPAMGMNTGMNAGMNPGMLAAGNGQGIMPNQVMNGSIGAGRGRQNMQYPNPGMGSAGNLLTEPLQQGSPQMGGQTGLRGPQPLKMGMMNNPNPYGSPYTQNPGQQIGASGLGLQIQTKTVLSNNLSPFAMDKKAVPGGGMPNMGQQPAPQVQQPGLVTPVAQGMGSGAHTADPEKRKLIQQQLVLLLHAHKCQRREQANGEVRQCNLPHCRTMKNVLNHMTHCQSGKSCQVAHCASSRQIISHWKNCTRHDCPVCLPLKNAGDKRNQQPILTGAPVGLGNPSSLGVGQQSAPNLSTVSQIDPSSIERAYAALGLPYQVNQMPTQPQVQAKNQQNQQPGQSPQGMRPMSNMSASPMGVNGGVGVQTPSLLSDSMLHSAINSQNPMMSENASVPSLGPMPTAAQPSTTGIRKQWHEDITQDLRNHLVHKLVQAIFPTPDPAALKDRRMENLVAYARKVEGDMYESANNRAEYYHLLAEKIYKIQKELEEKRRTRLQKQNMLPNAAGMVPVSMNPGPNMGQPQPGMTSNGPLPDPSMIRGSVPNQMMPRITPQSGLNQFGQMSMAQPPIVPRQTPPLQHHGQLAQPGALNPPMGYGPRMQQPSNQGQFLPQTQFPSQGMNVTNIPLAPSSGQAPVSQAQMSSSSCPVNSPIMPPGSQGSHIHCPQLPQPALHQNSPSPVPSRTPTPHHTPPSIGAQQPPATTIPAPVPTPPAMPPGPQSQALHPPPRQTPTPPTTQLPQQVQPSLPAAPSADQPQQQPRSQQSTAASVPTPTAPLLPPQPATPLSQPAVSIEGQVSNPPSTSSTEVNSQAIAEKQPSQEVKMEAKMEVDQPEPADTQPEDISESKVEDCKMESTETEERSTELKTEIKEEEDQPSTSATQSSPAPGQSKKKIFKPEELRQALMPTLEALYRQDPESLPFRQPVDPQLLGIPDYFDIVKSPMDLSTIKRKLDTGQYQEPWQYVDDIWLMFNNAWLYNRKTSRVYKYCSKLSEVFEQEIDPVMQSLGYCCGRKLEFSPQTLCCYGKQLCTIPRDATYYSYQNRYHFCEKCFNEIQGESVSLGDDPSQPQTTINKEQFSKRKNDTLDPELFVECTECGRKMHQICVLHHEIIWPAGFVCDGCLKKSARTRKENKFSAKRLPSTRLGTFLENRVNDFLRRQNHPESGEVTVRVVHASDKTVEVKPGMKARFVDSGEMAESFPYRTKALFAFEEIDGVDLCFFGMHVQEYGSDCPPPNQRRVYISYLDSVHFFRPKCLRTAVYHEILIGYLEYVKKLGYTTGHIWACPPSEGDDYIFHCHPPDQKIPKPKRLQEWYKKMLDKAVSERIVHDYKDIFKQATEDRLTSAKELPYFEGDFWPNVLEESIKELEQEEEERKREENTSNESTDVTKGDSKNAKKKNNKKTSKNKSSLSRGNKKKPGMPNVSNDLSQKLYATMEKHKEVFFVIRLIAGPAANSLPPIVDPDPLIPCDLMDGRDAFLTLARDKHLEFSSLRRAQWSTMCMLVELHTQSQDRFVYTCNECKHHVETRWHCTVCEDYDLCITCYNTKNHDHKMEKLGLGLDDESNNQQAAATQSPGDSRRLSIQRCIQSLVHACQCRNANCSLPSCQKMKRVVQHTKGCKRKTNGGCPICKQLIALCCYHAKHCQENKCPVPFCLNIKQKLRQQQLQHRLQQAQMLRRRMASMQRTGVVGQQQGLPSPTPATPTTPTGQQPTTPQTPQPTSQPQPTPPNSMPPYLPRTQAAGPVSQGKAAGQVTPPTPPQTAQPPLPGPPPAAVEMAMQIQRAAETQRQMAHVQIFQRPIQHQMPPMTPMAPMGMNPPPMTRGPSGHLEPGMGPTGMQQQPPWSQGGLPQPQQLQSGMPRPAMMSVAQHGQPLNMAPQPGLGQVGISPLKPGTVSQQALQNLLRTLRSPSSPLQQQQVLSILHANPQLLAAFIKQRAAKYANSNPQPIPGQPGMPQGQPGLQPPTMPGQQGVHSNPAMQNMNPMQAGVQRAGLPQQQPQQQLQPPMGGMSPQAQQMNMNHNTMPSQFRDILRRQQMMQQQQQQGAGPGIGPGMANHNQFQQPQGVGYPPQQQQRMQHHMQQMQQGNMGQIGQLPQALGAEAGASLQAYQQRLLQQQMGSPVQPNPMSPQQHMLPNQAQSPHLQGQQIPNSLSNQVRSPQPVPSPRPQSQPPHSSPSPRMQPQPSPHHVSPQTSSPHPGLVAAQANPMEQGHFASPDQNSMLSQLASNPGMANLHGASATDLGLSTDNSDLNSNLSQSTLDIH

Construct, isoform or probe ends are uncertain for at least one entry. At least one result comes from cells or an extract, where the contact may be indirect. For some of these results: Weaker means in comparison with the reference protein, sequence or condition of that experiment. At least one verdict rests on a figure or table, not on a statement of the authors. For some of these results: Tags and fusion partners may be left off the protein sequences shown.

Data set [1] has as its target EP300 (UniProt Q09472). Briefly: EMSA supershift. The note with it: anti-EP300 1 or 1.5 ug, bands 3 and 4 weakened, C stronger than T for band 3; Beyotime 5x EMSA/Gel-Shift Binding buffer (2 uL), SH-SY5Y nuclear extract 1.5-6 ug, 50 fmol biotin probe, unlabeled competitor 750 fmol; protein in an extract; label: 3' biotin. For orientation: In EMSA bound probe runs differently from free probe, usually more slowly.

The target in data set [2] is T1, REST (UniProt Q13127).
T1 sequence (looked up, limits assumed): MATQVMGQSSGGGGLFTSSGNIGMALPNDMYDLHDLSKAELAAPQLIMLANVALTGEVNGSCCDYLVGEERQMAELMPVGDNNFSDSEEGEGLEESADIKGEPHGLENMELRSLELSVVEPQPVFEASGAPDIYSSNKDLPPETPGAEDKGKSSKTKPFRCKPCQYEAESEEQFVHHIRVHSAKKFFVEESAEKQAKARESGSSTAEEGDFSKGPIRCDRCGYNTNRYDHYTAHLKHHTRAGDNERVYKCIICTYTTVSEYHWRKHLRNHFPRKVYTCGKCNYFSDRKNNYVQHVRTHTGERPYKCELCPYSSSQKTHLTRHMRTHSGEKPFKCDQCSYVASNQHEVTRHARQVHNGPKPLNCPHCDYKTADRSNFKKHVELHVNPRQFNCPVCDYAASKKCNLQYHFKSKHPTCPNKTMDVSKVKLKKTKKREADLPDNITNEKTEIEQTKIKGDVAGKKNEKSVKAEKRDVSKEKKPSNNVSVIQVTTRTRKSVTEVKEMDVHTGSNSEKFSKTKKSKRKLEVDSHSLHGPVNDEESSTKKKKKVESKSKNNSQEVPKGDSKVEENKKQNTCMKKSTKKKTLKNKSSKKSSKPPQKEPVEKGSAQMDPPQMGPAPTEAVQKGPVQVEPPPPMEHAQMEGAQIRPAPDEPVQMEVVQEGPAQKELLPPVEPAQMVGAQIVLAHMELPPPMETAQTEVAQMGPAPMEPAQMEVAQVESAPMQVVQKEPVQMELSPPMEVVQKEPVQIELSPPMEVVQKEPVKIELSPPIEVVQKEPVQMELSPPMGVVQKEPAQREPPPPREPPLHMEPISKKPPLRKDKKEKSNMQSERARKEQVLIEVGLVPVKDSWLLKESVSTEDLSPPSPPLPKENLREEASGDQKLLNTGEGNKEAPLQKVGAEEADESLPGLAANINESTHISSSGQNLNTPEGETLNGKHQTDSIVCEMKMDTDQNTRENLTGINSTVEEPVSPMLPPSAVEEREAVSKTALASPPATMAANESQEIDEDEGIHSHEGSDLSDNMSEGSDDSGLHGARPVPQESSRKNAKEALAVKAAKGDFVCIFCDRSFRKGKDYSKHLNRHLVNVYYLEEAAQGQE
Briefly: EMSA supershift. The note with it: anti-REST 0.8 ug, 6 ug extract, band 3 weakened, C stronger than T for band 3; Beyotime 5x EMSA/Gel-Shift Binding buffer (2 uL), SH-SY5Y nuclear extract 1.5-6 ug, 50 fmol biotin probe, unlabeled competitor 750 fmol; protein in an extract; label: 3' biotin.

Data set [3] deals with EP300 (UniProt Q09472). Put plainly: EMSA. The note with it: band 3 (weakened by EP300 antibody) weaker than C allele, supershift per allele not stated; Beyotime 5x EMSA/Gel-Shift Binding buffer (2 uL), SH-SY5Y nuclear extract 1.5-6 ug, 50 fmol biotin probe, unlabeled competitor 750 fmol; protein in an extract; label: 3' biotin.
The target in data set [4] is T1, REST. Briefly: EMSA. The note with it: band 3 (assigned to REST by antibody) weaker than C allele, supershift per allele not stated; Beyotime 5x EMSA/Gel-Shift Binding buffer (2 uL), SH-SY5Y nuclear extract 1.5-6 ug, 50 fmol biotin probe, unlabeled competitor 750 fmol; protein in an extract; label: 3' biotin.

With “GGATGGGAGCTTTCCTGGCCCCAGTGCCCCATGGGTTAGTG (double strand) [rs10786700 C allele (risk) 41 bp]”, the binding result with EP300 [1] and with REST [2] was “binds” throughout.
Turning to “GGATGGGAGCTTTCCTGGCCTCAGTGCCCCATGGGTTAGTG (double strand) [rs10786700 T allele (non-risk) 41 bp]”, the binding result with EP300 [3] and with REST [4] was “binds more weakly” in each case.
